Laboratory results taken from article doi:10.1101/741033.
Like-named read-outs stand apart in the source and are kept apart here. These are yes or no findings as the source states them, for the method shown. Binding seen in cells or lysates may run through a third protein. These calls come from enrichment with a bait or labelling near it, and not all partners need be listed. For part of these data: Tags and fused reporters may be left off the sequences shown.

B1: PF3D7_0702500 (protein, UniProt Q8IC42 1-253)
chain: MAYPLLEDDLRSIRVAFGTCPGNSTMQFGERFWQGFFFGVIIFFVLSKYIRSYKKRKGMRILKSSSVTKGRLYRGTVFDEDDNVDGHHKKTKAHGLFEEIEKRNGFDLNDDTTNSNNLGEGTHSAVHNLDGQKESQLYKNNSDGSTENHLSGSNSDGRNSSQHSVGSHSVSSQEHKKEHSTHDLPAGRNYSLGNLSTGTTSQGSTSSRHYSLGGQPSSSGRSFSGSKYNTSNLASSSTTESSVSGLNTNEAHV
B2: ring exported protein 1 (REX1), endogenous (protein, UniProt Q8I2G1 1-713)
chain: MADYSSNEEETPKEEKKISKLEDMQSPFDYKRFFRKYTIFAPFILVYFTLMFFVNSTVQNGTMLLNSIKENANSKLPALLWNKIIGKGNDNEVNFEDKKMIEGNKSGNGEEHNKHKRRQVDNQEDDYDVDEYGNPKSGAPYKSEEEHAEQQNYYGEHHGDYEDKNEYHGKSNIENNKDFPEQGQKDEEKEKEAKKKAEEFEKRKQLHEEEKRKARETQQALHKKLQEQLQRLKEQEKKKVEHQKLIHKIKTQGDVDPAVQKVLNKYNQKEKDEEQQILKIRDLQVQLRHIQQRIQSLKSTNNGQPKTKDEYLQLKDLQKEYYDKEQDEQNMIEHLEHLQGEMQYLYEELQIVYDENQAKTAQAKDEQHELKPQAEKDASKLTTTYDQTKEVKPQAEKDASKLTTTYDQTKEVKPQAEKDASKLTTTYDQTKEVKPQAEKDALAKTENQNGELLPQAEKDASKLTTTYDQTKEVKPQAEKDALAKTENQNGELLPQAEKDASKLTTTYDQTKEVKPQAEKDALAKTENQNGELLPQAEKDASKLTTTYDQTKEVKPQAEKDALAKTENQSGELLTQAEKDALAKKESEAPKGSSTSDKNTTENQLNAEAQSEVKPQWQKDYWKSKNESQTETNNTWKKDSWKKKTEEQQNAEAQQEVKSPYEKYSYNKETKPQNDKYTLNKEVKPQNEKYTYNQKVKAENTESEKSLLESSVFN
B3: membrane-associated histidine-rich protein 2 (MAHRP2) (protein, UniProt Q8IDG8 1-137)
chain: MQPCPYDVYNQINHVGTHWAQHLGEHLHHLAHMHQHTPHVHHHIPHVHTLAHDRPCMPITAFFCRHHEHCSSHLMLIFLLLAFFLVVVYRLYNEVVNSAKTVRIVNITPVNEEHKAEASKEQSKSTSDSSTSTQQTL

Experiments:
Assay in all cases: affinity purification with mass spectrometry
[1] = target: GFP-tagged virulence complex assembly protein 1 (VCAP1-GFP) (P. falciparum 3D7) (UniProt Q8IEJ0)
[2] = target: GFP-tagged membrane-associated histidine-rich protein 1 (MAHRP1-GFP) (P. falciparum 3D7) (UniProt C0H5L9)
[3] = target: T1, GFP-tagged ring exported protein 1 (REX1-GFP) (P. falciparum 3D7) (UniProt Q8I2G1)
T1 sequence: B2 chain

[4] = target: GFP-tagged GEXP10 (GEXP10-GFP) (P. falciparum 3D7) (UniProt Q8I2D9)
[5] = target: GFP-tagged PTP5 (PTP5-GFP) (P. falciparum 3D7) (UniProt Q8IK15)
[6] = target: GFP-tagged PTP6 (PTP6-GFP) (P. falciparum 3D7)
[7] = target: GFP-tagged PTP5 (PTP5-GFP) (P. falciparum 3D7) (UniProt Q8IK15); remark: listed apart in the source
[8] = target: T1, GFP-tagged ring exported protein 1 (REX1-GFP) (P. falciparum 3D7); remark: listed apart in the source
[9] = target: GFP-tagged PF3D7_1353100 (PF3D7_1353100-GFP) (P. falciparum 3D7) (UniProt Q8IDG9)

Row | Molecule | binding [1] | binding [2] | binding [4] | further results
1 | GEXP10, endogenous (from UniProt Q8I2D9) | binds | binds |  | 
2 | P. falciparum erythrocyte membrane protein 1 (PfEMP1) |  |  |  | binding [3]: binds
3 | Pf322 (from UniProt Q8IHN4 1-6093) | binds |  |  | 
4 | membrane-associated histidine-rich protein 1 (MAHRP1), endogenous (from UniProt C0H5L9 1-249) | binds |  | binds | 
5 | parasite-infected erythrocyte surface protein 2 (PIESP2) (from UniProt Q8I488) |  | binds | binds | binding [5]: binds
6 | virulence complex assembly protein 1 (VCAP1), endogenous (from UniProt Q8IEJ0) |  | binds | binds | 
7 | B1 |  |  |  | binding [6]: binds
8 | B2 |  |  |  | binding [7]: binds
9 | B3 |  |  |  | binding [8]: binds; binding [9]: binds
